Our source for the binding values is paper doi:10.1101/2022.11.10.516034 (bioRxiv, 2022).

Results are given in words; binding and its absence hold for the method and conditions named.

For this assay, the target named is Twinkle N-terminal domain (NTD, amino acids 43-372) (human) (UniProt Q96RR1). As to the kind of experiment: SEC. (Size exclusion chromatography separates by hydrodynamic size, large species first.)

B1: Twinkle N-terminal domain (NTD, amino acids 43-372) (domain or fragment, UniProt Q96RR1 43-372)
chain: ETLQALDMPVLPVTATEIRQYLRGHGIPFQDGHSCLRALSPFAESSQLKGQTGVTTSFSLFIDKTTGHFLCMTSLAEGSWEDFQASVEGRGDGAREGFLLSKAPEFEDSEEVRRIWNRAIPLWELPDQEEVQLADTMFGLTKVTDDTLKRFSVRYLRPARSLVFPWFSPGGSGLRGLKLLEAKCQGDGVSYEETTIPRPSAYHNLFGLPLISRRDAEVVLTSRELDSLALNQSTGLPTLTLPRGTTCLPPALLPYLEQFRRIVFWLGDDLRSWEAAKLFARKLNPKRCFLVRPGDQQPRPLEALNGGFNLSRILRTALPAWHKSIVSFRQ
For the molecule B1, the binding result is “no binding (tested: ~80 µM)”.
